Results deposited as PubChem BioAssay AID1259425 (University of Nebraska Medical Center, 2018).

- Screen: 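Find knockdowns that reproduce the gene expression pattern seen when KSR1 is lost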 (primary screen)
- Cells: HCT116 human colon cancer cells
- Reagent: siRNA pool against human genes, 50 nM siRNA
- Measured: 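mRNA of six signature genes measured together by branched-DNA assay after 50 nM siRNA pool, blank removed, divided by geometric mean of two housekeeping genes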
- Reading the numbers: BNIP3L mRNA: higher = more BNIP3L transcript after knockdown; NDRG1 mRNA: higher = more NDRG1 transcript after knockdown; BNIP3 mRNA: higher = more BNIP3 transcript after knockdown; ALDOC mRNA: higher = more ALDOC transcript after knockdown; ACSL5 mRNA: higher = more ACSL5 transcript after knockdown
Here is a random part of about 14,000 reagents tested. No sequences are given here. Not stated in the record: the time to read-out.

| Target gene | PubChem SID | BNIP3L mRNA, set 1 | NDRG1 mRNA, set 1 | BNIP3 mRNA, set 1 | ALDOC mRNA, set 1 | ACSL5 mRNA, set 1 |
| --- | --- | --- | --- | --- | --- | --- |
| XPOT | SID363997929 | 0.0405 | 0.538 | 0.29 | 0.00443 | 0.165 |
| TUBAL3 | SID364003070 | 0.0831 | 0.086 | 0.251 | 0.0385 | 0.248 |
| ABCB7 | SID363995293 | 0.067 | 0.752 | 0.325 | 0.0133 | 0.0771 |
| IFITM1 | SID363994716 | 0.151 | 0.466 | 0.325 | 0.0849 | 0.473 |
| FRMPD4 | SID364005176 | 0.158 | 0.262 | 0.535 | 0.0621 | 0.108 |
| RASAL2 | SID363995793 | 0.264 | 0.346 | 0.158 | 0.0474 | 0.213 |

The list goes on; the last 2 above are carried over.
| Target gene | PubChem SID | BNIP3L mRNA, set 1 | NDRG1 mRNA, set 1 | BNIP3 mRNA, set 1 | ALDOC mRNA, set 1 | ACSL5 mRNA, set 1 |
| --- | --- | --- | --- | --- | --- | --- |
| FRMPD4 | SID364005176 | 0.158 | 0.262 | 0.535 | 0.0621 | 0.108 |
| RASAL2 | SID363995793 | 0.264 | 0.346 | 0.158 | 0.0474 | 0.213 |
| H2BC12 | SID364004485 | 0.145 | 0.159 | 0.299 | 0.0367 | 0.182 |
| PGRMC2 | SID363997141 | 0.0605 | 0.245 | 0.267 | 0.0225 | 0.144 |
| MLH3 | SID363998803 | 0.0923 | 0.29 | 0.27 | 0.0113 | 0.206 |
| EYA4 | SID363995110 | 0.044 | 0.474 | 0.255 | 0.0101 | 0.213 |
| RBP4 | SID363997515 | 0.137 | 0.147 | 0.243 | 0.00155 | 0.0717 |
| SERPING1 | SID363991399 | 0.106 | 1.42 | 0.26 | 0.0382 | 0.373 |
| ACAD9 | SID363998575 | 0.081 | 0.212 | 0.259 | 0.0171 | 0.191 |
| FIBP | SID363995214 | 0.0824 | 0.0588 | 0.182 | 0.0107 | 0.0911 |
| TNFSF15 | SID363996053 | 0.108 | 0.114 | 0.179 | 0.0277 | 0.165 |
| ZNF239 | SID363996564 | 0.104 | 0.349 | 0.281 | 0.0325 | 0.108 |
| DKC1 | SID363992640 | 0.0547 | 0.179 | 0.327 | 0.0753 | 0.137 |
| PRL | SID363992232 | 0.0747 | 0.165 | 0.319 | 0.0231 | 0.0916 |
| RHOBTB1 | SID363999135 | 0.168 | 0.115 | 0.34 | 0.00491 | 0.217 |
| FASLG | SID363991955 | 0.0244 | 0.147 | 0.146 | 0.0101 | 0.232 |
